The other results are listed elsewhere or left out. Repeats are few or missing, and single values can be far off.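 Imaging used 1,536-well plates; nuclei positive for cleaved PARP by antibody were divided by total DNA-stained nuclei to yield the apoptosis fraction. Doses for screening kept most cells viable, and cell lines differ markedly in resting and induced cleaved-PARP levels.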
Key:
Test in all cases: cleaved PARP positive nuclei fraction relative to DMSO control; melanoma cells; higher = more apoptosis
Details in all cases: library dose: low library concentration; 72 h
501Mel = test system: 501Mel
A101D = test system: A101D
A2058 = test system: A2058
A375 = test system: A375
C32 = test system: C32
CBRC008 = test system: CBRC008 (line from a melanoma biopsy)
CBRC013 = test system: CBRC013 (line from a melanoma biopsy)
CBRC014 = test system: CBRC014 (line from a melanoma biopsy)
CBRC016 = test system: CBRC016 (line from a melanoma biopsy)
CBRC017 = test system: CBRC017 (line from a melanoma biopsy)
COLO792 = test system: COLO792
COLO800 = test system: COLO800
COLO829 = test system: COLO829
G361 = test system: G361
IPC-298 = test system: IPC-298
IST-MEL1 = test system: IST-MEL1
LB2518-MEL = test system: LB2518-MEL
LOXIMVI = test system: LOXIMVI
MEL-HO = test system: MEL-HO

Structure (SMILES): O=C(O)c1ccc2c(c1)nc(Nc1cccc(Cl)c1)c1ccncc12 + NCC(=O)Nc1ccc(-n2nc(C(F)(F)F)cc2-c2ccc3c(ccc4ccccc43)c2)cc1 [OSU03012] (first compound 0.4 µM, partner dose 1 µM)
- cleaved PARP positive nuclei fraction (501Mel): 150%
- cleaved PARP positive nuclei fraction (A101D): 200%
- cleaved PARP positive nuclei fraction (A2058): 197%
- cleaved PARP positive nuclei fraction (A375): 3990%
- cleaved PARP positive nuclei fraction (C32): 194%
- cleaved PARP positive nuclei fraction (CBRC008): 107%
- cleaved PARP positive nuclei fraction (CBRC013): 162%
- cleaved PARP positive nuclei fraction (CBRC014): 141%
- cleaved PARP positive nuclei fraction (CBRC016): 99.2%
- cleaved PARP positive nuclei fraction (CBRC017): 168%
- cleaved PARP positive nuclei fraction (COLO792): 183%
- cleaved PARP positive nuclei fraction (COLO800): 35.6%
- cleaved PARP positive nuclei fraction (COLO829): 97.8%
- cleaved PARP positive nuclei fraction (G361): 101%
- cleaved PARP positive nuclei fraction (IPC-298): 26.7%
- cleaved PARP positive nuclei fraction (IST-MEL1): 135%
- cleaved PARP positive nuclei fraction (LB2518-MEL): 73.6%
- cleaved PARP positive nuclei fraction (LOXIMVI): 128%
- cleaved PARP positive nuclei fraction (MEL-HO): 92.1%

Structure (SMILES): O=C(O)c1ccc2c(c1)nc(Nc1cccc(Cl)c1)c1ccncc12 + C[C@@H]1CCN(C(=O)CC#N)C[C@@H]1N(C)c1ncnc2[nH]ccc12 [CP690550] (first compound 0.4 µM, partner dose 1 µM)
- cleaved PARP positive nuclei fraction (501Mel): 42.2%
- cleaved PARP positive nuclei fraction (A101D): 75.6%
- cleaved PARP positive nuclei fraction (A2058): 149%
- cleaved PARP positive nuclei fraction (A375): 42.1%
- cleaved PARP positive nuclei fraction (C32): 49.7%
- cleaved PARP positive nuclei fraction (CBRC008): 53.6%
- cleaved PARP positive nuclei fraction (CBRC013): 109%
- cleaved PARP positive nuclei fraction (CBRC014): 159%
- cleaved PARP positive nuclei fraction (CBRC016): 235%
- cleaved PARP positive nuclei fraction (CBRC017): 183%
- cleaved PARP positive nuclei fraction (COLO792): 146%
- cleaved PARP positive nuclei fraction (COLO800): 54.7%
- cleaved PARP positive nuclei fraction (COLO829): 91.6%
- cleaved PARP positive nuclei fraction (G361): 34.7%
- cleaved PARP positive nuclei fraction (IPC-298): 47%
- cleaved PARP positive nuclei fraction (IST-MEL1): 130%
- cleaved PARP positive nuclei fraction (LB2518-MEL): 95.1%
- cleaved PARP positive nuclei fraction (LOXIMVI): 133%
- cleaved PARP positive nuclei fraction (MEL-HO): 35.2%

Structure (SMILES): CCCS(=O)(=O)Nc1ccc(F)c(C(=O)c2c[nH]c3ncc(Cl)cc23)c1F + NCC(=O)Nc1ccc(-n2nc(C(F)(F)F)cc2-c2ccc3c(ccc4ccccc43)c2)cc1 [OSU03012] (first compound 0.08 µM, partner dose 1 µM)
- cleaved PARP positive nuclei fraction (501Mel): 1580%
- cleaved PARP positive nuclei fraction (A101D): 40.8%
- cleaved PARP positive nuclei fraction (A2058): 28.2%
- cleaved PARP positive nuclei fraction (A375): 10000%
- cleaved PARP positive nuclei fraction (C32): 45%
- cleaved PARP positive nuclei fraction (CBRC008): 93.8%
- cleaved PARP positive nuclei fraction (CBRC013): 213%
- cleaved PARP positive nuclei fraction (CBRC014): 96.4%
- cleaved PARP positive nuclei fraction (CBRC016): 180%
- cleaved PARP positive nuclei fraction (CBRC017): 91.1%
- cleaved PARP positive nuclei fraction (COLO792): 73.5%
- cleaved PARP positive nuclei fraction (COLO800): 80.7%
- cleaved PARP positive nuclei fraction (COLO829): 60.6%
- cleaved PARP positive nuclei fraction (G361): 101%
- cleaved PARP positive nuclei fraction (IPC-298): 73.7%
- cleaved PARP positive nuclei fraction (IST-MEL1): 111%
- cleaved PARP positive nuclei fraction (LB2518-MEL): 42.3%
- cleaved PARP positive nuclei fraction (LOXIMVI): 103%
- cleaved PARP positive nuclei fraction (MEL-HO): 35.8%

Structure (SMILES): O=C(O)[C@@H]1[O][Sb](=[O])([O][Sb]2(=[O])[O][C@H]([C@H](O)CO)[C@H](O)[C@H](C(=O)O)[O]2)[O][C@H]([C@H](O)CO)[C@@H]1O (some centres not stated) [stibogluconate] + C=CCn1c(=O)c2cnc(Nc3ccc(N4CCN(C)CC4)cc3)nc2n1-c1cccc(C(C)(C)O)n1 [MK1775] (first compound 2 µM, partner dose 0.02 µM)
- cleaved PARP positive nuclei fraction (501Mel): 143%
- cleaved PARP positive nuclei fraction (A101D): 50.9%
- cleaved PARP positive nuclei fraction (A2058): 60.2%
- cleaved PARP positive nuclei fraction (A375): 203%
- cleaved PARP positive nuclei fraction (C32): 90.5%
- cleaved PARP positive nuclei fraction (CBRC008): 227%
- cleaved PARP positive nuclei fraction (CBRC013): 101%
- cleaved PARP positive nuclei fraction (CBRC014): 116%
- cleaved PARP positive nuclei fraction (CBRC016): 178%
- cleaved PARP positive nuclei fraction (CBRC017): 99.9%
- cleaved PARP positive nuclei fraction (COLO792): 63.6%
- cleaved PARP positive nuclei fraction (COLO800): 84.1%
- cleaved PARP positive nuclei fraction (COLO829): 88.2%
- cleaved PARP positive nuclei fraction (G361): 90.5%
- cleaved PARP positive nuclei fraction (IPC-298): 58.1%
- cleaved PARP positive nuclei fraction (IST-MEL1): 180%
- cleaved PARP positive nuclei fraction (LB2518-MEL): 50.4%
- cleaved PARP positive nuclei fraction (LOXIMVI): 37.4%
- cleaved PARP positive nuclei fraction (MEL-HO): 27.5%

Structure (SMILES): CN1CCN(c2ccc3nc(-c4c(N)c5c(F)cccc5[nH]c4=O)[nH]c3c2)CC1 [Dovitinib] + Cc1cc(N2CCOCC2)cc2[nH]c(-c3c(NC[C@@H](O)c4cccc(Cl)c4)cc[nH]c3=O)nc12 [BMS536924] (first compound 0.1 µM, partner dose 0.2 µM)
- cleaved PARP positive nuclei fraction (501Mel): 123%
- cleaved PARP positive nuclei fraction (A101D): 94.7%
- cleaved PARP positive nuclei fraction (A2058): 99.3%
- cleaved PARP positive nuclei fraction (A375): 109%
- cleaved PARP positive nuclei fraction (C32): 185%
- cleaved PARP positive nuclei fraction (CBRC008): 365%
- cleaved PARP positive nuclei fraction (CBRC013): 210%
- cleaved PARP positive nuclei fraction (CBRC014): 89.9%
- cleaved PARP positive nuclei fraction (CBRC016): 62.3%
- cleaved PARP positive nuclei fraction (CBRC017): 88%
- cleaved PARP positive nuclei fraction (COLO792): 147%
- cleaved PARP positive nuclei fraction (COLO800): 112%
- cleaved PARP positive nuclei fraction (COLO829): 93.9%
- cleaved PARP positive nuclei fraction (G361): 174%
- cleaved PARP positive nuclei fraction (IPC-298): 24.3%
- cleaved PARP positive nuclei fraction (IST-MEL1): 220%
- cleaved PARP positive nuclei fraction (LB2518-MEL): 281%
- cleaved PARP positive nuclei fraction (LOXIMVI): 147%
- cleaved PARP positive nuclei fraction (MEL-HO): 71.6%

Structure (SMILES): O=C(O)[C@@H]1[O][Sb](=[O])([O][Sb]2(=[O])[O][C@H]([C@H](O)CO)[C@H](O)[C@H](C(=O)O)[O]2)[O][C@H]([C@H](O)CO)[C@@H]1O (some centres not stated) [stibogluconate] + Cc1ccc(NC(=O)c2cccc(N(C)C)c2)cc1NC(=O)c1ccc(O)cc1 [ZM336372] (first compound 2 µM, partner dose 2 µM)
- cleaved PARP positive nuclei fraction (501Mel): 82.1%
- cleaved PARP positive nuclei fraction (A101D): 44.9%
- cleaved PARP positive nuclei fraction (A2058): 383%
- cleaved PARP positive nuclei fraction (A375): 106%
- cleaved PARP positive nuclei fraction (C32): 146%
- cleaved PARP positive nuclei fraction (CBRC008): 119%
- cleaved PARP positive nuclei fraction (CBRC013): 85.4%
- cleaved PARP positive nuclei fraction (CBRC014): 136%
- cleaved PARP positive nuclei fraction (CBRC016): 104%
- cleaved PARP positive nuclei fraction (CBRC017): 155%
- cleaved PARP positive nuclei fraction (COLO792): 141%
- cleaved PARP positive nuclei fraction (COLO800): 39.4%
- cleaved PARP positive nuclei fraction (COLO829): 117%
- cleaved PARP positive nuclei fraction (G361): 99%
- cleaved PARP positive nuclei fraction (IPC-298): 114%
- cleaved PARP positive nuclei fraction (IST-MEL1): 68.8%
- cleaved PARP positive nuclei fraction (LB2518-MEL): 102%
- cleaved PARP positive nuclei fraction (LOXIMVI): 62.1%
- cleaved PARP positive nuclei fraction (MEL-HO): 75.9%

Structure (SMILES): CC(C)C[C@H](NC(=O)[C@H](Cc1ccccc1)NC(=O)c1cnccn1)B(O)O [Bortezomib] + Cc1ccc(NC(=O)c2cccc(N(C)C)c2)cc1NC(=O)c1ccc(O)cc1 [ZM336372] (first compound 0.001 µM, partner dose 2 µM)
- cleaved PARP positive nuclei fraction (501Mel): 309%
- cleaved PARP positive nuclei fraction (A101D): 597%
- cleaved PARP positive nuclei fraction (A2058): 189%
- cleaved PARP positive nuclei fraction (A375): 164%
- cleaved PARP positive nuclei fraction (C32): 224%
- cleaved PARP positive nuclei fraction (CBRC008): 777%
- cleaved PARP positive nuclei fraction (CBRC013): 94.7%
- cleaved PARP positive nuclei fraction (CBRC014): 549%
- cleaved PARP positive nuclei fraction (CBRC016): 519%
- cleaved PARP positive nuclei fraction (CBRC017): 256%
- cleaved PARP positive nuclei fraction (COLO792): 64.8%
- cleaved PARP positive nuclei fraction (COLO800): 96.7%
- cleaved PARP positive nuclei fraction (COLO829): 160%
- cleaved PARP positive nuclei fraction (G361): 2520%
- cleaved PARP positive nuclei fraction (IPC-298): 134%
- cleaved PARP positive nuclei fraction (IST-MEL1): 101%
- cleaved PARP positive nuclei fraction (LB2518-MEL): 171%
- cleaved PARP positive nuclei fraction (LOXIMVI): 41.9%
- cleaved PARP positive nuclei fraction (MEL-HO): 265%

Structure (SMILES): CNC(=O)c1cc(Oc2ccc(NC(=O)Nc3ccc(Cl)c(C(F)(F)F)c3)cc2)ccn1 [sorafenib] + Cc1cc(N2CCOCC2)cc2[nH]c(-c3c(NC[C@@H](O)c4cccc(Cl)c4)cc[nH]c3=O)nc12 [BMS536924] (first compound 0.4 µM, partner dose 0.2 µM)
- cleaved PARP positive nuclei fraction (501Mel): 144%
- cleaved PARP positive nuclei fraction (A101D): 83.2%
- cleaved PARP positive nuclei fraction (A2058): 97.5%
- cleaved PARP positive nuclei fraction (A375): 117%
- cleaved PARP positive nuclei fraction (C32): 137%
- cleaved PARP positive nuclei fraction (CBRC008): 191%
- cleaved PARP positive nuclei fraction (CBRC013): 79.3%
- cleaved PARP positive nuclei fraction (CBRC014): 92.1%
- cleaved PARP positive nuclei fraction (CBRC016): 86%
- cleaved PARP positive nuclei fraction (CBRC017): 78.7%
- cleaved PARP positive nuclei fraction (COLO792): 85.2%
- cleaved PARP positive nuclei fraction (COLO800): 470%
- cleaved PARP positive nuclei fraction (COLO829): 98.4%
- cleaved PARP positive nuclei fraction (G361): 118%
- cleaved PARP positive nuclei fraction (IPC-298): 50.1%
- cleaved PARP positive nuclei fraction (IST-MEL1): 100%
- cleaved PARP positive nuclei fraction (LB2518-MEL): 191%
- cleaved PARP positive nuclei fraction (LOXIMVI): 94.3%
- cleaved PARP positive nuclei fraction (MEL-HO): 130%

Reference: the supplement of paper PMC4604168 (melanoma cell lines)
